From paper PMC3776778, “A Fully Human Inhibitory Monoclonal Antibody to the Wnt Receptor RYK” (PLoS ONE, 2013) come the findings set out here.

Chains of the proteins cited; added tags and fusions are not shown. A line that says so, or that is headed by a name, gives the form on record, which may keep a tag or linker. Residues count along the entry.
hRYK.Fc (entire human RYK extracellular region fused to Fc.FLAG) (P34925, residues 26-227): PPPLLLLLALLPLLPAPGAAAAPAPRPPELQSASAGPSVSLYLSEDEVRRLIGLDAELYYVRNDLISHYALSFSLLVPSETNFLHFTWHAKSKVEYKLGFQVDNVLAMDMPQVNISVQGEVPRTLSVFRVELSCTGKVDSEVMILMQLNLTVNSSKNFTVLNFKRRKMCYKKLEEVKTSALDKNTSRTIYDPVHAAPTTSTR
hRYKWD.Fc (WIF domain of human RYK fused to the Fc.FLAG region of human IgG1) (P34925, residues 66-194): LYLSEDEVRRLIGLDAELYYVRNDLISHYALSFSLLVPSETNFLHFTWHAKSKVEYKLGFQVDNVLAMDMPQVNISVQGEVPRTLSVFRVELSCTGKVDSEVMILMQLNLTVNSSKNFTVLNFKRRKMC
UniProt P27467, residues 19-352: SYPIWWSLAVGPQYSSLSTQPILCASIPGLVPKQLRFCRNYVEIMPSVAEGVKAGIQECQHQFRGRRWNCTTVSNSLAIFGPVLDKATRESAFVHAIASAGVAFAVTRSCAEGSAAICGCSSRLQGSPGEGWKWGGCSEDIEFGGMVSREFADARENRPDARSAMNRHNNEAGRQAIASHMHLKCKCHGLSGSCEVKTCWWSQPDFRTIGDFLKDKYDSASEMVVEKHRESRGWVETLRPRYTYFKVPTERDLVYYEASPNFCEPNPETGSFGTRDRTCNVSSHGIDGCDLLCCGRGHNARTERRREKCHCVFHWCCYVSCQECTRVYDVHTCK

No constants are given. Whether binding was seen depends on the method and setting. Binding seen in cells or lysates may run through a third protein. Some binding calls cover weakened binding; strength is not graded here. Sequences can lack the tags named with a protein.

Assay [1] deals with hRYKWD.Fc (WIF domain of human RYK fused to the Fc.FLAG region of human IgG1) (human) (UniProt P34925). In words: co-IP; 1 µg purified hRYKWD.Fc added to lysates (200 µg) of transiently transfected HEK293T cells; anti-FLAG IP, immunoblot with anti-Myc antibody; only the target purified. On the technique in general: In western blotting, separated proteins are transferred to a membrane and probed.

Assay [2] has as its target hRYK.Fc (entire human RYK extracellular region fused to Fc.FLAG) (human) (UniProt P34925). In words: co-IP; 250 ng purified hRYK.Fc pre-incubated with 20 µg scFv or IgG at 4°C for 1 h, then lysate of Wnt3a.Myc5- or Wnt5a.Myc5-transfected HEK293T cells (10-20 µg) and anti-FLAG M2 affinity gel, 4°C, 1 h; washes with 150 mM NaCl/0.1% Triton X-100, 500 mM NaCl, 50 mM Tris; blot with anti-Myc; only the target purified.

Turning to “Wnt3a.Myc5 (from UniProt P27467 19-352) (ligand)”, the binding result in assay [1] and in assay [2] was “binds” throughout.

B1: Wnt5a.Myc5 (ligand, UniProt P22725 62-380)
chain: IIGAQPLCSQLAGLSQGQKKLCHLYQDHMQYIGEGAKTGIKECQYQFRHRRWNCSTVDNTSVFGRVMQIGSRETAFTYAVSAAGVVNAMSRACREGELSTCGCSRAARPKDLPRDWLWGGCGDNIDYGYRFAKEFVDARERERIHAKGSYESARILMNLHNNEAGRRTVYNLADVACKCHGVSGSCSLKTCWLQLADFRKVGDALKEKYDSAAAMRLNSRGKLVQVNSRFNSPTTQDLVYIDPSPDYCVRNESTGSLGTQGRLCNKTSEGMDGCELMCCGRGYDQFKTVQTERCHCKFHWCCYVKCKKCTEIVDQFVCK
Turning to B1, the binding entry in assay [1] and in assay [2] was “binds” each time.

B2: Wnt1.Myc5 (ligand, UniProt P04426 28-370)
chain: ANSSGRWWGIVNIASSTNLLTDSKSLQLVLEPSLQLLSRKQRRLIRQNPGILHSVSGGLQSAVRECKWQFRNRRWNCPTAPGPHLFGKIVNRGCRETAFIFAITSAGVTHSVARSCSEGSIESCTCDYRRRGPGGPDWHWGGCSDNIDFGRLFGREFVDSGEKGRDLRFLMNLHNNEAGRTTVFSEMRQECKCHGMSGSCTVRTCWMRLPTLRAVGDVLRDRFDGASRVLYGNRGSNRASRAELLRLEPEDPAHKPPSPHDLVYFEKSPNFCTYSGRLGTAGTAGRACNSSSPALDGCELLCCGRGHRTRTQRVTERCNCTFHWCCHVSCRNCTHTRVLHECL
In the case of B2, the binding entry in assay [1] was “binds”.
